# The other results are listed elsewhere or left out.
# Target: T1, OsSMF1 (Oryza sativa, UniProt Q6ZLB0 1-436)
# T1 sequence: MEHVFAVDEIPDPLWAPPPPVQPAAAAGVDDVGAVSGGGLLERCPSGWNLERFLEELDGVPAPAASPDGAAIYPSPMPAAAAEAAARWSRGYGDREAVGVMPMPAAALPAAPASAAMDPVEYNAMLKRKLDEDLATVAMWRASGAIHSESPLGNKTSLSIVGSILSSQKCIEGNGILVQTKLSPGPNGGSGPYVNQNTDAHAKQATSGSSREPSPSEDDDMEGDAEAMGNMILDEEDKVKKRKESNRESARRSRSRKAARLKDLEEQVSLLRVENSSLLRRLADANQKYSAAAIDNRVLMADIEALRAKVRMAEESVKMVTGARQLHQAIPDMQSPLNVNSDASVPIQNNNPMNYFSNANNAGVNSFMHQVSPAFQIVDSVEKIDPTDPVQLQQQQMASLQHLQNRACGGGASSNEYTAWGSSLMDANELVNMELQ
# Experiment: protein-binding microarray (RPBM); PBS, 2% BSA, 51.3 ng/ul salmon testes DNA, 50 uM zinc acetate, 200 nM TF, 25 C, 1 h; high values mean tight binding
# Conditions: protein: recombinant; tags: N-terminal polyhistidine and DsRed monomer fusion (pET32a); chain copies: 2; label: CyDye5-dUTP incorporated in the synthesized complementary strand; 3' TTTTT single-stranded linker to array surface; dsDNA, one strand shown
# How it was run: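 An Axon 4000B scanner gave the binding signal as per-feature fluorescence intensity in arbitrary units. This followed washing of a custom Agilent array that had been incubated for 1 h at 25 °C with 200 nM protein in PBS, 2% BSA, salmon testes DNA and 50 µM zinc acetate. The proteins were transcription factors fused at the N-terminus to polyhistidine and DsRed, expressed in E. coli BL21-CodonPlus and purified on Ni–NTA.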
row,Sequence,binding signal
1,CTCTGCAACCTGCCGTCACCGCCACTACTCAACTCCCTTTCGGAGTCACCTAGTGCAG,3190 fluorescence intensity (a.u.)
2,GTTGCTTCTCAAGGATCAATCTTATTTACCATTGAAGTGTCGGAGTCACCTAGTGCAG,21900 fluorescence intensity (a.u.)
3,TGGAGTTTGTACGATTGCAGGTTTGACGATGTTTGACTCGCGGAGTCACCTAGTGCAG,3170 fluorescence intensity (a.u.)
4,TCACCAAAGATGCCGACATGAGTGACGTCATCGTCGTTGTCGGAGTCACCTAGTGCAG,30200 fluorescence intensity (a.u.)
5,GTGCTGTTCCTGCATGTGCATGCATGTATGAGTACGTACGCGGAGTCACCTAGTGCAG,3910 fluorescence intensity (a.u.)
6,CGTCGCCGCCGGACACGCCACCGCTGGGGCTCTTGGACCACGGAGTCACCTAGTGCAG,3610 fluorescence intensity (a.u.)
7,ATTAGCCTTGTTTAAAATGACACATTGGAGTAAGAAGCACCGGAGTCACCTAGTGCAG,3600 fluorescence intensity (a.u.)
8,GAGAAACAGAGAGTGAGTACTAGTCAACCGACTTTGCCGACGGAGTCACCTAGTGCAG,3870 fluorescence intensity (a.u.)
9,GATTGCCACGTAAGCGCCACGTCAGTGCCACATCAGATGACGGAGTCACCTAGTGCAG,34200 fluorescence intensity (a.u.)
10,TTTGTGTAAGAATGATGTGTTATGCTCTTGAGCTACTTCCCGGAGTCACCTAGTGCAG,3580 fluorescence intensity (a.u.)
11,GGAGGTGGGGATGGTGGGAGGTTTTGGTTTGGTAAAATAGCGGAGTCACCTAGTGCAG,4910 fluorescence intensity (a.u.)
12,ATGAAGCTTGGCCGGCTTCATCGTAGCAAACCAGTTGGTCCGGAGTCACCTAGTGCAG,6680 fluorescence intensity (a.u.)
13,GAAGCCGTGGGGAGGTCGTGCTCGAGATCGCCGATGTGGACGGAGTCACCTAGTGCAG,3350 fluorescence intensity (a.u.)
14,CAGTGTGCCACCTACTCCTCCTACTCAAAGCCTCACCGCCCGGAGTCACCTAGTGCAG,3660 fluorescence intensity (a.u.)
15,TCGCTGTCTGACGTGGAGGTCAGGAGGCTCCGCGCGGACGCGGAGTCACCTAGTGCAG,8210 fluorescence intensity (a.u.)
16,AGAGGTTTCCGCCGCCATCGTCGGCGTCGGCGTCGGCGGCCGGAGTCACCTAGTGCAG,3300 fluorescence intensity (a.u.)
17,TTATGAAGTGAACTTATTCCACGTGGAAATCACTTCCGGTCGGAGTCACCTAGTGCAG,14700 fluorescence intensity (a.u.)
18,GGAGAGGGGAGAGCTCCTCGCCGCTGACATGTGGGCCATACGGAGTCACCTAGTGCAG,3700 fluorescence intensity (a.u.)
19,CTGCTCCTGAGGGGTAGGGAGGGAGGGGAAGGAGCACGTTCGGAGTCACCTAGTGCAG,3950 fluorescence intensity (a.u.)
20,GAGGTGGTCGGCCAGGCTGGTCTTGCCGTGGTCGACGTGCCGGAGTCACCTAGTGCAG,3600 fluorescence intensity (a.u.)
21,CCACACACCGACACGTGGGGCCACCATCAAAGCTGGTCCCCGGAGTCACCTAGTGCAG,8670 fluorescence intensity (a.u.)
22,CTTAATTAAGTTCATGCATCTTATCTAGATGCACGGTGCACGGAGTCACCTAGTGCAG,24600 fluorescence intensity (a.u.)
23,AATATGTCCAGATTCATAGTATTATGATGTGTCACATCCGCGGAGTCACCTAGTGCAG,6440 fluorescence intensity (a.u.)
24,ACTTAGGCGCCACGTCAGCCAATACCGCTATCAAAACCCCCGGAGTCACCTAGTGCAG,22100 fluorescence intensity (a.u.)
25,ACCGCTCTCAGTCACCTCCTCTACCCAACTCAAACGAACGCGGAGTCACCTAGTGCAG,4210 fluorescence intensity (a.u.)
26,GGAGTGCCTTGATGCTAGGCGGTAGGGACACGTGGGCACGCGGAGTCACCTAGTGCAG,13200 fluorescence intensity (a.u.)
27,TATACACACTATGTATTAAAACCCGTGCTACAGCTGGCTGCGGAGTCACCTAGTGCAG,3230 fluorescence intensity (a.u.)

# Quoted at random: two records from the list.
row,Sequence,binding signal
26,GGAGTGCCTTGATGCTAGGCGGTAGGGACACGTGGGCACGCGGAGTCACCTAGTGCAG,13200 fluorescence intensity (a.u.)
11,GGAGGTGGGGATGGTGGGAGGTTTTGGTTTGGTAAAATAGCGGAGTCACCTAGTGCAG,4910 fluorescence intensity (a.u.)

# (continued)

row,Sequence,binding signal
1,ACACCACAACACCACGAAGCCGCGAGTCACCATCAGTGATCGGAGTCACCTAGTGCAG,3420 fluorescence intensity (a.u.)
2,CACAAGTACAAACAACTGCTAGCGTGGATATGTCTCACTACGGAGTCACCTAGTGCAG,3700 fluorescence intensity (a.u.)
3,TTATTGCACGTGGGAATTGCGGAGGCGTGGCATGGTAGTCCGGAGTCACCTAGTGCAG,5030 fluorescence intensity (a.u.)
4,TGCCATGAAATCGAGGTGAGTGGGTGTGTCACCTTCGAATCGGAGTCACCTAGTGCAG,4080 fluorescence intensity (a.u.)
5,GGCATCGACGTGAATGAGTCAGCAAGCGCGGGGTGCGCCTCGGAGTCACCTAGTGCAG,6300 fluorescence intensity (a.u.)
6,CCGACGAGCACATCCACGCCATCGTCATCGGCGTGCTCGGCGGAGTCACCTAGTGCAG,4520 fluorescence intensity (a.u.)
7,TCCGACCGGCTCAACGATGATCAAGACCTACCTGACCTTGCGGAGTCACCTAGTGCAG,3410 fluorescence intensity (a.u.)
8,AGATAGGCTTGGTCATCACCATTCCTCGACCAGCTCACGCCGGAGTCACCTAGTGCAG,3540 fluorescence intensity (a.u.)
9,TACTGGAGCCTGTGAGTGCGTAAACGTGGTGTAAGATATGCGGAGTCACCTAGTGCAG,3500 fluorescence intensity (a.u.)
10,TGGTTTAAAAGAACATTGATTGGATATTTCTTATAGTTCTCGGAGTCACCTAGTGCAG,23300 fluorescence intensity (a.u.)
11,ATCAATTTTGCAGGTTACCAAGGATGGGTGCCCAGTCATCCGGAGTCACCTAGTGCAG,5050 fluorescence intensity (a.u.)
12,GGAGAGCAGCACATCACGGCTGTCCACGTGGCCGCGCCGCCGGAGTCACCTAGTGCAG,16900 fluorescence intensity (a.u.)
13,CAGGCCAGAACAACTGCTCGGCCCGATAGGAGGGCCTACTCGGAGTCACCTAGTGCAG,55800 fluorescence intensity (a.u.)
14,TATCCGATTATATCATACCAGTATATTACATCATGGCGCCCGGAGTCACCTAGTGCAG,4270 fluorescence intensity (a.u.)
15,TTTCGGGGTTCCAATTTGAGTCACGCACATATTCTTCATCCGGAGTCACCTAGTGCAG,8490 fluorescence intensity (a.u.)
16,TCAGTAGTTGCTTCTCGCAACGTCACAGGCTTTAGATGCACGGAGTCACCTAGTGCAG,44200 fluorescence intensity (a.u.)
17,TATGTTACCCAGATACGGCTGAAAAGCCACGTATCCGTATCGGAGTCACCTAGTGCAG,6340 fluorescence intensity (a.u.)
18,CGCCGCTGCCCGCATCATCACCACCTCACCTCACCTCAGCCGGAGTCACCTAGTGCAG,4440 fluorescence intensity (a.u.)
19,ACGAAGAGTTCGCAGGCTGACACGCAACAGTTGGCAGGCTCGGAGTCACCTAGTGCAG,7060 fluorescence intensity (a.u.)
20,CTTATCTACTTGATATTTGCATATGTATACAGTTTTACTGCGGAGTCACCTAGTGCAG,3220 fluorescence intensity (a.u.)
21,ACAAGGTCATAGATGCCACGATGAATAATTGCATTACTTTCGGAGTCACCTAGTGCAG,3250 fluorescence intensity (a.u.)
22,CACACAGCCGCCCTTGCCGACCGCCACCGCCGCAACCGCACGGAGTCACCTAGTGCAG,3300 fluorescence intensity (a.u.)
23,ACAACCACAGGGCTCACCGGCCAGCAACACGTCGACAACCCGGAGTCACCTAGTGCAG,7860 fluorescence intensity (a.u.)
24,GCGCGATGTTGGCGCCCGCGCTCTCGCCGCCGACGTGGACCGGAGTCACCTAGTGCAG,9540 fluorescence intensity (a.u.)
25,ATAAAGTGAGCGATGAGTCATATCATTATCTCCTGCCTGCCGGAGTCACCTAGTGCAG,13000 fluorescence intensity (a.u.)
26,TTCGAACGAGACTGCAAGAGTGATGACCTGGAAGTCCGCACGGAGTCACCTAGTGCAG,5180 fluorescence intensity (a.u.)
27,GATAGTTGCGGATTTCGTTGATGTCATGTGGAATACTGGACGGAGTCACCTAGTGCAG,4620 fluorescence intensity (a.u.)

# Source: publication PMC7819943, “Rice protein-binding microarrays: a tool to detect cis-acting elements near promoter regions in rice”
